Measured values as given in PubChem BioAssay AID1347423 (Functional Genomics Laboratory (NCATS/FGL), 2020).
Out of some 52,000 sequences screened, about 210 (0.4%) were called active.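 The calls were made as follows: active = gene whose silencing raises cell survival under the drug, median off-target-corrected z-score across its silencing RNAs 2 or more; inactive = the rest.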 Some of the results follow.

Assay: Resistance to Poly (ADP-Ribose) Polymerase inhibitor: Gene Identification via Genome-wide siRNA Screen
Settings: mouse BRCA2 R2336H ES cells, olaparib, CellTiter-Glo viability; active compounds read high
Method in brief: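 Genome-wide siRNA screen (3 siRNAs/gene, 20 nM) in mouse ES cells carrying hypomorphic BRCA2 R2336H; olaparib 500 nM added 48 h post-transfection, CellTiter-Glo viability 72 h later. Normalized to plate-median negative control; MAD z-scores, gene median, seed-adjusted.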

Sequence | z-score
GGCCGCCAUUUUGGCAAGATT against Fbxo27 | inactive: 1.32
GGUGGACACACACAUCCACTT against Ampd2 | inactive: 0.517
CGAGAGGUUUGUCCAUAGATT against Tac4 | inactive: 0.339
CCUUAGCCCUCAUUCACAGTT against BC046404 | inactive: -1.35
GGGAAUGGAGGUCCAGAUUTT against 1700027D21Rik | inactive: -3.07
GCUAUGGAUCAAAGAAUUATT against Senp1 | inactive: 0.165
GGAUUCCUGCUUAUCAAAUTT against Nut | inactive: -0.02
GGAGUCAGUGAGGUACAUUTT against C230096C10Rik | inactive: -2.27
GGACAAACUGCCCUUACAGTT against BC048671 | inactive: -1.05
GGCCAACACUCAGAAAAGGTT against 4933409D10Rik | inactive: -0.601
GGAAGUGCAAGAAAGAUAUTT against Ltbp3 | inactive: -0.545
CCAGUGCGAUUCAAGAUUATT against Glrx1 | inactive: 1.33
CGGUCGUGAGUUUGUAUAUTT against BC027061 | inactive: 0.503
GGACAAUGUUUCCUCACUCTT against Xcl1 | inactive: -1.05
GGUUUAUUGUAAUGGCUAATT against Olfr1271 | inactive: 0.734
GCCAGUGGAAAAUUGACGUTT against BC053917 | inactive: -0.722
AAUCAGUUUGAAAUGGUAGTT against Olfr255 | inactive: -0.616
GGAAGUUAUUGGAGCUUUGTT against Olfr706 | inactive: -1.18
GCGACUGCGUUCGUUAUUUTT against Matn1 | inactive: 1.01
CGCGCUGUGACUUUCAAAATT against Ifitm1 | inactive: -0.223
GGCUGUGACUAUGUUGUGCTT against Top3b | inactive: 0.826
GCUGCAUCCGUAGAUGUUGTT against Fthfd | inactive: -0.992

Sequence | z-score
GCAUAAAACAGGGAACUUUTT against 4831428F09 | inactive: -1.37
GCUGUAUCCUGUAGUGAGUTT against 4930422J18Rik | inactive: -0.132
GGCUAAUGUGCUCUCUCAUTT against Olfr644 | inactive: 1.28
GGAACUUCGUCAGUACAUUTT against Setdb1 | inactive: 0.892
GGUCCACUUGCCAUCUAUUTT against Zfp54 | inactive: 0.817
GGUAAUAGGAGAUACUGUGTT against Gzme | inactive: 0.464
GCCUUUCAACUCACCAGCCTT against A630056B21Rik | inactive: -0.185
GGGCAAAAAUCCUCUAAAUTT against Gas7 | inactive: -0.373
GGUUUGAGUUUAGAGUUCATT against Axl | inactive: -0.701
GGCUUUGGCGAUAAGACAUTT against Glud1 | inactive: -1.14
GGGAUGUGGAACGUAUGGUTT against 1110038M16Rik | inactive: -0.0762
GGGAGUGGUUGUCUAUUCCTT against 1110017C15Rik | inactive: -1.13
CCCGGAUGAGGAAUUCAUGTT against Pdlim7 | inactive: -0.777
AACAUGUCCAACCUAGGCATT against Leftb | inactive: -0.266
GGAGAUUGGGAUCAAAGCCTT against Mthfd1 | inactive: -0.247
GGAUGGUUAUCAGGAAAAUTT against Scel | inactive: 0.175
GGCUUAUGUCCCAAAGCUATT against Nexn | inactive: 1.35
GGAUUUGAGUACAAGAAACTT against Tada2l | inactive: 1.78
GGAAAUUUAGAGUGGUUCGTT against 2410187C16Rik | inactive: -0.609
GGACUUAUUAUGUGAGUGUTT against Ncbp2 | inactive: 1.9
CCCUAAGGAUGGUAUAUUUTT against Hr6bn | inactive: -1.45
GGACGAAUUCUGAUGUCUATT against 1110060M21Rik | inactive: -0.805

Sequence | z-score
GGUUUGUUUAGCUUGAAACTT against Ccr1 | inactive: 1.01
GGAACCCAAGUAGCCUUGUTT against Serf2 | inactive: -0.582
GGGCUCUUAUAUAAUAGUUTT against Slc36a2 | inactive: -1.01
GGUUCAGAAUCAAUACGAGTT against Krt2-17 | inactive: -0.534
GGACAUGUUCUCAUUUACATT against D030014N22Rik | inactive: 0.196
CGAGCUAGAUGACUUACUATT against Pkp4 | inactive: 0.132
GGACACACUACCGAACAUUTT against Gral | inactive: -3.31
GGACAGCUCUCAGAAUUCUTT against Ctse | inactive: 2.28
GGGCCAAGAAAACCUACACTT against Cyp11b2 | inactive: -1.14
CGUCACCUACCAAGGAGAGTT against Enpp7 | inactive: 0.937
GGAGACCUGGCAAAUGUAATT against Dctn5 | inactive: 0.918
GGAAAAGUCCUGUAAAAUUTT against Dmrta1 | inactive: 0.431
CUUCAAUACACGAGUUGUCTT against Olfr1126 | inactive: -0.1
CGGAAAGUCCGGUUUCGAATT against AY616753 | inactive: 0.249
CCCUAUUUGUCAACGAUUATT against 6430402H13Rik | inactive: -0.521
GCCUGUGAACCUGUAUUGUTT against Unc5c | inactive: -0.71
GCACCUGUUUGAGAUUACGTT against Arhgap22 | inactive: 0.841
GGUCUGUUUCUGAACUCCUTT against Hace1 | inactive: 1.69
GCCACUCUUAGUGCUAACUTT against 4930521E07Rik | inactive: -2.01
CCAUGCUUAGCUCAAUAGUTT against Pla2g3 | inactive: -0.822
GGAGAGGAGACACAUCAGUTT against Gnpat | inactive: 0.171
GGAUACUUUGAGAACUACUTT against 1110002B05Rik | inactive: -0.271

Already shown: an excerpt of the list.
Sequence | z-score
GGUUCAGAAUCAAUACGAGTT against Krt2-17 | inactive: -0.534
GGACAUGUUCUCAUUUACATT against D030014N22Rik | inactive: 0.196
CGAGCUAGAUGACUUACUATT against Pkp4 | inactive: 0.132
GGACACACUACCGAACAUUTT against Gral | inactive: -3.31
GGACAGCUCUCAGAAUUCUTT against Ctse | inactive: 2.28
GGGCCAAGAAAACCUACACTT against Cyp11b2 | inactive: -1.14
CGUCACCUACCAAGGAGAGTT against Enpp7 | inactive: 0.937
GGAGACCUGGCAAAUGUAATT against Dctn5 | inactive: 0.918
GGAAAAGUCCUGUAAAAUUTT against Dmrta1 | inactive: 0.431
CUUCAAUACACGAGUUGUCTT against Olfr1126 | inactive: -0.1
CGGAAAGUCCGGUUUCGAATT against AY616753 | inactive: 0.249
CCCUAUUUGUCAACGAUUATT against 6430402H13Rik | inactive: -0.521
GCCUGUGAACCUGUAUUGUTT against Unc5c | inactive: -0.71
GCACCUGUUUGAGAUUACGTT against Arhgap22 | inactive: 0.841
GGUCUGUUUCUGAACUCCUTT against Hace1 | inactive: 1.69
GCCACUCUUAGUGCUAACUTT against 4930521E07Rik | inactive: -2.01
CCAUGCUUAGCUCAAUAGUTT against Pla2g3 | inactive: -0.822
GGAGAGGAGACACAUCAGUTT against Gnpat | inactive: 0.171
